Test results reported in paper PMC9898538.
These are yes or no findings as the source states them, for the method shown. In cells and extracts the contact can be indirect. Some entries that bind do so weakly or less than the wild type. Tags and fused reporters may be left off the sequences shown.

Sequences of proteins named here, by UniProt entry; tags and fusion partners are left off.
UniProt Q92558: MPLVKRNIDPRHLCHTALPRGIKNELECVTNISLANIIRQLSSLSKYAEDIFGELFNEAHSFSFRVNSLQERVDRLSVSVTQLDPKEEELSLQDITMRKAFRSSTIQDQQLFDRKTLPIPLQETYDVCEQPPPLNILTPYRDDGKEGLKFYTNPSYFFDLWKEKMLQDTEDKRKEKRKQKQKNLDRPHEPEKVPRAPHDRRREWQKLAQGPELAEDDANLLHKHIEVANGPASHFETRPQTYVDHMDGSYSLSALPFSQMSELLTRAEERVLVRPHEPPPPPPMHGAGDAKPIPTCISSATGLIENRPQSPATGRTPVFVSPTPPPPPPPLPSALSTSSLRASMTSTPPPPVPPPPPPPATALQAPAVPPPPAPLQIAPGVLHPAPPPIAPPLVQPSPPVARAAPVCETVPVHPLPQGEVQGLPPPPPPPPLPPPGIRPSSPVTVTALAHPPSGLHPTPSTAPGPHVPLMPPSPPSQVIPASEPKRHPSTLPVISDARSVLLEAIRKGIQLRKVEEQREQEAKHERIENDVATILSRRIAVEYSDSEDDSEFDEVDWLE

Biological target: WAVE1 (UniProt Q92558)
Experiment: co-IP; COS7 cells cotransfected with CaMKII and wild-type or 3S3A nArgBP2_(959-1196), with or without ionomycin before lysis; 1% Triton X-100 buffer (20 mM Tris pH 7.5, 137 mM NaCl, 10% glycerol, 2 mM EDTA); primary antibody 2 h at 4 °C, then Protein A-Sepharose

Row | binding | Binder
1 | binds | EGFP-nArgBP2_(959-1196) (domain or fragment, UniProt O35413 959-1196) EVKLPAKAVYDFKAQTSKELSFKKGDTVYILRKIDQNWYEGEHHGRVGIFPISYVEKLTPPEKAQPARPPPPVQPGEIGEAIAKYNFNADTNVELSLRKGDRIILLKRVDQNWYEGKIPGTNRQGIFPVSYVEVVKRNTKGSEDYPDPPLPHSYSSDRIYSLSSNKPQRPVFSHENIQGGGEPFQALYNYTPRNEDELELRESDVVDVMEKCDDGWFVGTSRRTKFFGTFPGNYVKRL
2 | binds | EGFP-nArgBP2_(959-1196)-3S3A (domain or fragment, UniProt O35413 959-1196) EVKLPAKAVYDFKAQTAKELSFKKGDTVYILRKIDQNWYEGEHHGRVGIFPISYVEKLTPPEKAQPARPPPPVQPGEIGEAIAKYNFNADTNVELSLRKGDRIILLKRVDQNWYEGKIPGTNRQGIFPVSYVEVVKRNTKGSEDYPDPPLPHSYSSDRIYALSSNKPQRPVFSHENIQGGGEPFQALYNYTPRNEDELELRESDVVDVMEKCDDGWFVGTARRTKFFGTFPGNYVKRL
